The text below walks through data of US20190338026A1 (University of Texas, published 2019).

The assay has as its target collagen I. The experiment in a line: ELISA, collagen I coated, LAIR1-ECD-His 10 ug/ml pre-incubated with antibody 10 ug/ml, anti-His-HRP. On the technique in general: In an ELISA, binding on a coated surface is turned into a signal by an enzyme label.

Results are given in words; binding and its absence hold for the method and conditions named. A result given as binding can be weak or reduced; the word gives no strength. Tags and fused reporters may be left off the sequences shown.

B1: human LAIR1 extracellular domain (ECD) protein with 6 HIS tag at the C-terminus (receptor)
chain: QEEDLPRPSISAEPGTVIPLGSHVTFVCRGPVGVQTFRLERESRSTYNDTEDVSQASPSESEARFRIDSVSEGNAGPYRCIYYKPPKWSEQSDYLELLVKETSGGPDSPDTEPGSSAGPTQRPSDNSHNEHAPASQGLKAEHLYHHHHHH
As to B1, the binding result is reported as “binds”.
